Results are given in words; binding and its absence hold for the method and conditions named. In cells and extracts the contact can be indirect. Some results given as binding are weak or reduced against the parent protein; the word gives no strength. For some assays here: Tags and fused reporters may be left off the sequences shown.
Tests used:
HA-Bcl-2 = HA-Bcl-2 (UniProt P10415); experiment: co-IP; lysates of HCT116 cells transfected with HA-Bcl-2 or HA-Bcl-xL, treated with or without compound 6d (5 uM, 8 h in Figure 3A); IP with anti-HA antibody and protein A + G agarose at 4 °C, WB
[1] = molecular target: T1, caspase 3-Flag (Flag-tagged at the C-terminal of caspase 3) (UniProt P42574); experiment: co-IP; HCT116 cells transfected with HDAC6-HA and caspase 3-Flag, treated with or without compound 6d; IP with anti-HA or anti-Flag, WB with anti-Flag or anti-HA
T1 sequence: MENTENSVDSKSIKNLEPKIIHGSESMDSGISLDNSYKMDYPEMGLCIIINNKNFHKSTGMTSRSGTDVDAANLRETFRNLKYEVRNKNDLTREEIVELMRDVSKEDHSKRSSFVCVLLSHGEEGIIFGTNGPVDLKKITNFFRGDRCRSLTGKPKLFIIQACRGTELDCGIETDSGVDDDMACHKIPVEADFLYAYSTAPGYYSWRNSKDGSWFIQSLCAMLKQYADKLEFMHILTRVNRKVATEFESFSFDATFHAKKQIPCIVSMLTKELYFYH

Sequences of proteins named here, by UniProt entry; tags and fusion partners are left off.
UniProt P10415: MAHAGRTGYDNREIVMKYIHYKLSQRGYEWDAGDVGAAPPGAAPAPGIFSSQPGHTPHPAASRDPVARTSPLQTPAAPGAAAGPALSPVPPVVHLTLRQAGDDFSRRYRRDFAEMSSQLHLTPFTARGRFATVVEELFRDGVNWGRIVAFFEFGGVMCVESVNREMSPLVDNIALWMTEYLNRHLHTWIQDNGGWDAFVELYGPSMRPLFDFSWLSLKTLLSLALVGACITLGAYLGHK
UniProt Q14457: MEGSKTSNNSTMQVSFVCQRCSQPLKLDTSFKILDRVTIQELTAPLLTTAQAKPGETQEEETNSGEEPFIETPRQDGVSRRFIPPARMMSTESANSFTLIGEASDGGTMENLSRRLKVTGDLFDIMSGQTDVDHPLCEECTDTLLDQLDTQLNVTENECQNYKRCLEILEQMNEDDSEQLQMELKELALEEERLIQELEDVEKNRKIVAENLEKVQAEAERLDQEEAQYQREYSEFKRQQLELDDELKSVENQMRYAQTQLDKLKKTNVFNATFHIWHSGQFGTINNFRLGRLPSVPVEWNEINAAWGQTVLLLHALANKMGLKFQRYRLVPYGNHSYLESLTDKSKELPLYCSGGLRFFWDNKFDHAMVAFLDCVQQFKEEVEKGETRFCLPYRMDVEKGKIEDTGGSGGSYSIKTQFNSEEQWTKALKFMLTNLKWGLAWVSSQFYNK
UniProt Q9UBN7: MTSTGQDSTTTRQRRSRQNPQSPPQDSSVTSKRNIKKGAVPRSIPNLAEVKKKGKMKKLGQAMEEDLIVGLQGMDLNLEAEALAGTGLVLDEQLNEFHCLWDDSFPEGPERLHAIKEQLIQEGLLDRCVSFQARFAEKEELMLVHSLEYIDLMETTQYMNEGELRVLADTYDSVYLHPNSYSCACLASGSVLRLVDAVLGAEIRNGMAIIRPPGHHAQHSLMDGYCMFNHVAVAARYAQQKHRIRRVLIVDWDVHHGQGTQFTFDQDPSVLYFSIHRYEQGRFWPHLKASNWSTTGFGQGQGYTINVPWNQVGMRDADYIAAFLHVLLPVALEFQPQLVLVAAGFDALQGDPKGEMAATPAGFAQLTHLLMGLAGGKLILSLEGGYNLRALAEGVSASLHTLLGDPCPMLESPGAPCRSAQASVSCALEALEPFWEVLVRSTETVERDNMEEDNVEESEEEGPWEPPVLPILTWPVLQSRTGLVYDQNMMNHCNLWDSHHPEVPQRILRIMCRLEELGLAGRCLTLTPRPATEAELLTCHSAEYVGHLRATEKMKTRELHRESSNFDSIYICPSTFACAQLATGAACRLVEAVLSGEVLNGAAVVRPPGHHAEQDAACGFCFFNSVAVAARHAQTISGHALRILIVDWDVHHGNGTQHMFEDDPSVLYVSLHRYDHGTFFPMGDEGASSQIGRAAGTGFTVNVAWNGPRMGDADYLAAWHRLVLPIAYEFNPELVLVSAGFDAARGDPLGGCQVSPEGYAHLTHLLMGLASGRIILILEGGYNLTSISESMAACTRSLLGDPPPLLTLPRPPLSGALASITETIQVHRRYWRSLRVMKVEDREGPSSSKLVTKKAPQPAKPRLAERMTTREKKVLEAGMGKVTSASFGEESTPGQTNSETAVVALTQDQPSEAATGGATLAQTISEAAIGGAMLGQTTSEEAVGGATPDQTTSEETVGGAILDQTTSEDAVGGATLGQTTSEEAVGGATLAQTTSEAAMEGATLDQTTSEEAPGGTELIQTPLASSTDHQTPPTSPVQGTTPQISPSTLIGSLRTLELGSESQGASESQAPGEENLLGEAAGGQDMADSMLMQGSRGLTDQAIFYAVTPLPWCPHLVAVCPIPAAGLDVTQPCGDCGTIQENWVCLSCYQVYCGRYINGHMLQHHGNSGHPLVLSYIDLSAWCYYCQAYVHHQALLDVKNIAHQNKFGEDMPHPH

Row | Substance | binding (HA-Bcl-2) | binding [1]
1 | Beclin 1, endogenous (from UniProt Q14457 1-450) | binds | 
2 | HDAC6-HA (HA-tagged at the C-terminal of HDAC6) (from UniProt Q9UBN7 1-1215) (enzyme) |  | binds

Source: publication PMC10095469
